Laboratory results as given in publication doi:10.1101/2022.04.29.489008.
Where two headings read alike, the source gives them in different places. These are yes or no findings as the source states them, for the method shown. Binding calls can cover weak binding; strength is not graded here. For some assays here: Where a sequence is shown, tags or fusion partners need not be part of it. For some assays here: In cells and extracts the contact can be indirect.

Key:
[1] = molecular target: MpSETA fused with the GAL4 DNA-binding domain (Marchantia polymorpha); test: two-hybrid
[2] = molecular target: MpSETA fused with the GAL4 DNA-binding domain (Marchantia polymorpha); test: two-hybrid; remark: listed apart in the source
[3] = molecular target: MpSETA-nYFP (Marchantia polymorpha); test: split reporter

| binding [2] | binding [3] | Molecule | further results |
| --- | --- | --- | --- |
| – | – | MpICE2 fused with the GAL4 activation domain (from UniProt A0A2R6W565) | binding [1]: binds |
| binds | – | AtICE1 fused with the GAL4 activation domain (protein, UniProt Q9LSE2 1-494) MGLDGNNGGGVWLNGGGGEREENEEGSWGRNQEDGSSQFKPMLEGDWFSSNQPHPQDLQMLQNQPDFRYFGGFPFNPNDNLLLQHSIDSSSSCSPSQAFSLDPSQQNQFLSTNNNKGCLLNVPSSANPFDNAFEFGSESGFLNQIHAPISMGFGSLTQLGNRDLSSVPDFLSARSLLAPESNNNNTMLCGGFTAPLELEGFGSPANGGFVGNRAKVLKPLEVLASSGAQPTLFQKRAAMRQSSGSKMGNSESSGMRRFSDDGDMDETGIEVSGLNYESDEINESGKAAESVQIGGGGKGKKKGMPAKNLMAERRRRKKLNDRLYMLRSVVPKISKMDRASILGDAIDYLKELLQRINDLHNELESTPPGSLPPTSSSFHPLTPTPQTLSCRVKEELCPSSLPSPKGQQARVEVRLREGRAVNIHMFCGRRPGLLLATMKALDNLGLDVQQAVISCFNGFALDVFRAEQCQEGQEILPDQIKAVLFDTAGYAGMI | – |
| – | binds | cYFP-AtICE1 (protein, UniProt Q9LSE2 1-494) MGLDGNNGGGVWLNGGGGEREENEEGSWGRNQEDGSSQFKPMLEGDWFSSNQPHPQDLQMLQNQPDFRYFGGFPFNPNDNLLLQHSIDSSSSCSPSQAFSLDPSQQNQFLSTNNNKGCLLNVPSSANPFDNAFEFGSESGFLNQIHAPISMGFGSLTQLGNRDLSSVPDFLSARSLLAPESNNNNTMLCGGFTAPLELEGFGSPANGGFVGNRAKVLKPLEVLASSGAQPTLFQKRAAMRQSSGSKMGNSESSGMRRFSDDGDMDETGIEVSGLNYESDEINESGKAAESVQIGGGGKGKKKGMPAKNLMAERRRRKKLNDRLYMLRSVVPKISKMDRASILGDAIDYLKELLQRINDLHNELESTPPGSLPPTSSSFHPLTPTPQTLSCRVKEELCPSSLPSPKGQQARVEVRLREGRAVNIHMFCGRRPGLLLATMKALDNLGLDVQQAVISCFNGFALDVFRAEQCQEGQEILPDQIKAVLFDTAGYAGMI | – |
| binds | – | AtSCRM2 fused with the GAL4 activation domain (protein, UniProt Q9LPW3 1-450) MNSDGVWLDGSGESPEVNNGEAASWVRNPDEDWFNNPPPPQHTNQNDFRFNGGFPLNPSENLLLLLQQSIDSSSSSSPLLHPFTLDAASQQQQQQQQQQEQSFLATKACIVSLLNVPTINNNTFDDFGFDSGFLGQQFHGNHQSPNSMNFTGLNHSVPDFLPAPENSSGSCGLSPLFSNRAKVLKPLQVMASSGSQPTLFQKRAAMRQSSSSKMCNSESSSEMRKSSYEREIDDTSTGIIDISGLNYESDDHNTNNNKGKKKGMPAKNLMAERRRRKKLNDRLYMLRSVVPKISKMDRASILGDAIDYLKELLQRINDLHTELESTPPSSSSLHPLTPTPQTLSYRVKEELCPSSSLPSPKGQQPRVEVRLREGKAVNIHMFCGRRPGLLLSTMRALDNLGLDVQQAVISCFNGFALDVFRAEQCQEDHDVLPEQIKAVLLDTAGYAGLV | – |
| – | binds | cYFP-AtSCRM2 (protein, UniProt Q9LPW3 1-450) MNSDGVWLDGSGESPEVNNGEAASWVRNPDEDWFNNPPPPQHTNQNDFRFNGGFPLNPSENLLLLLQQSIDSSSSSSPLLHPFTLDAASQQQQQQQQQQEQSFLATKACIVSLLNVPTINNNTFDDFGFDSGFLGQQFHGNHQSPNSMNFTGLNHSVPDFLPAPENSSGSCGLSPLFSNRAKVLKPLQVMASSGSQPTLFQKRAAMRQSSSSKMCNSESSSEMRKSSYEREIDDTSTGIIDISGLNYESDDHNTNNNKGKKKGMPAKNLMAERRRRKKLNDRLYMLRSVVPKISKMDRASILGDAIDYLKELLQRINDLHTELESTPPSSSSLHPLTPTPQTLSYRVKEELCPSSSLPSPKGQQPRVEVRLREGKAVNIHMFCGRRPGLLLSTMRALDNLGLDVQQAVISCFNGFALDVFRAEQCQEDHDVLPEQIKAVLLDTAGYAGLV | – |
